According to the supplement of paper PMC10849652:
The list shows a part of the results.

Chains of the proteins cited; added tags and fusions are not shown. Lines headed by an entry give the natural chain unless they say otherwise; changes in a name come on top.
UniProt Q9UNY4: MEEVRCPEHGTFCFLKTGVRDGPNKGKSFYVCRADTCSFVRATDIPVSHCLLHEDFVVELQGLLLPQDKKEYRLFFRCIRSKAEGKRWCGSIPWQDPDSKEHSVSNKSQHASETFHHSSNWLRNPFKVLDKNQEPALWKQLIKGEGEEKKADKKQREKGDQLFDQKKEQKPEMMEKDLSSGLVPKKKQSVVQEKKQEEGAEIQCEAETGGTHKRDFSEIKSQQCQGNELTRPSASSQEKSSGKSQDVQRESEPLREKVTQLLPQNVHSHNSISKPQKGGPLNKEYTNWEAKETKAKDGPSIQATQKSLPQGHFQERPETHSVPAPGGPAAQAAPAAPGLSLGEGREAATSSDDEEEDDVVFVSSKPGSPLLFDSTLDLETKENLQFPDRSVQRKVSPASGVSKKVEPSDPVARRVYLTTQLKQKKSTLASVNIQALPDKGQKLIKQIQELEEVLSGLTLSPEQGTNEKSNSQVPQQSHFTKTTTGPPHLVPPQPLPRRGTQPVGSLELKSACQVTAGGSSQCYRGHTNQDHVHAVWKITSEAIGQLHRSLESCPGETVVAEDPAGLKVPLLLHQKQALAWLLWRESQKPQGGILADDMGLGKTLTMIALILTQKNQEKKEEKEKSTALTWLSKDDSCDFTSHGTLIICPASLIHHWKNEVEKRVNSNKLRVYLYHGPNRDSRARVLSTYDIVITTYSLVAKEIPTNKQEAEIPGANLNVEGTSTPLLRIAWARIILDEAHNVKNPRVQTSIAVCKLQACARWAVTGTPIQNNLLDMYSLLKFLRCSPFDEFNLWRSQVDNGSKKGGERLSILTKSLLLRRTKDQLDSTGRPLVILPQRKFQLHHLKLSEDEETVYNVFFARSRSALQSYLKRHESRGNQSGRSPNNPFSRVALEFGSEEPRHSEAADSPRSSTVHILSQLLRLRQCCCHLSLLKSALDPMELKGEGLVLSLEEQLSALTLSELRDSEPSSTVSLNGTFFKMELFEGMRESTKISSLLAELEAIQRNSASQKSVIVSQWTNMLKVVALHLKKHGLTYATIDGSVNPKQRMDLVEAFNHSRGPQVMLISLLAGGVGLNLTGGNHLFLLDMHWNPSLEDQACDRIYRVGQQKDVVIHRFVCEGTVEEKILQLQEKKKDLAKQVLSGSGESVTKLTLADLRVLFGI
UniProt Q9C0C9: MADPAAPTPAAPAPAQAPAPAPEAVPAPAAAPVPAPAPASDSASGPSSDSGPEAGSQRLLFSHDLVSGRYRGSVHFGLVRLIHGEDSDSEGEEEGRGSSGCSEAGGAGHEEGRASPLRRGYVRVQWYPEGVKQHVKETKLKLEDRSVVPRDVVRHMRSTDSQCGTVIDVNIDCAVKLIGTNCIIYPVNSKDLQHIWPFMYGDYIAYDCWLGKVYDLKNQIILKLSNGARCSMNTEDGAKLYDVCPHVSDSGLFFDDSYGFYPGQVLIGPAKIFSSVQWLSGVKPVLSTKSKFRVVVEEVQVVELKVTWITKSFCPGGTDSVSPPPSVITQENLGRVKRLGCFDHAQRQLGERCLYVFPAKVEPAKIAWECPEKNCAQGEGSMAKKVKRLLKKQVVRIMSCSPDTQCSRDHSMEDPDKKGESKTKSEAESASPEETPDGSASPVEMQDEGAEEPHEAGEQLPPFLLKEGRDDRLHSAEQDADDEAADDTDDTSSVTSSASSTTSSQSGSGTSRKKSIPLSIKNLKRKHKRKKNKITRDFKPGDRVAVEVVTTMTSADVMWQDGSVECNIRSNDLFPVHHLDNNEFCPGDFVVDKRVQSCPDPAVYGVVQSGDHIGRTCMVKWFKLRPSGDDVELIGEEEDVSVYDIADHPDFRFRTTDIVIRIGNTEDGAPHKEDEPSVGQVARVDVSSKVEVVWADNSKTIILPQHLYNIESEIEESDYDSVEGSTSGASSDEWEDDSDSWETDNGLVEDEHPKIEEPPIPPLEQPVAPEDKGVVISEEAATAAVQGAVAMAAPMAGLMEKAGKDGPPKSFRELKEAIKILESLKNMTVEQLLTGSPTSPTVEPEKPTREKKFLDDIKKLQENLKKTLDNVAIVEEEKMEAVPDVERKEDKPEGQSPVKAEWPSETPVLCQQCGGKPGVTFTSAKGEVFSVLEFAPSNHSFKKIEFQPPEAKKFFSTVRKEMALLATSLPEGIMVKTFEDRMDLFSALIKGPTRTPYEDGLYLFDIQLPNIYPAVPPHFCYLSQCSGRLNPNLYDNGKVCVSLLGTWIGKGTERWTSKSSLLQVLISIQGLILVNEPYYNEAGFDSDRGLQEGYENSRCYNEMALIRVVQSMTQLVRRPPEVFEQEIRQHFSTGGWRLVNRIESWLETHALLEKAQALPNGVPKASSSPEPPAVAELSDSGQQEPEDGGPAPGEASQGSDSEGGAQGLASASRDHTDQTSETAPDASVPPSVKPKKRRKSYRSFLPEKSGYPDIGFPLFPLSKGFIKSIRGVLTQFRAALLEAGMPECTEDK
UniProt Q15631: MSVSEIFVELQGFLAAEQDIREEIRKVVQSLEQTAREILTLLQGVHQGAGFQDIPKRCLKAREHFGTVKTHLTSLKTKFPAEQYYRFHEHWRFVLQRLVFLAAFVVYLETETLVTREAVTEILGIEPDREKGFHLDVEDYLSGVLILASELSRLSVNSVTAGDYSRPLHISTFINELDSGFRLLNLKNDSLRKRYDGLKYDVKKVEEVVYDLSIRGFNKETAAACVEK
UniProt O14530: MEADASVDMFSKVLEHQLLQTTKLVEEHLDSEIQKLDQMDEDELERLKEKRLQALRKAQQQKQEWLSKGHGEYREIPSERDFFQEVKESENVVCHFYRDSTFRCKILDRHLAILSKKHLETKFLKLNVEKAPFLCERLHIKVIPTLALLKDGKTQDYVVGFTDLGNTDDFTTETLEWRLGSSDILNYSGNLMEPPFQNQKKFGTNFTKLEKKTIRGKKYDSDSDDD
UniProt Q5T6F2: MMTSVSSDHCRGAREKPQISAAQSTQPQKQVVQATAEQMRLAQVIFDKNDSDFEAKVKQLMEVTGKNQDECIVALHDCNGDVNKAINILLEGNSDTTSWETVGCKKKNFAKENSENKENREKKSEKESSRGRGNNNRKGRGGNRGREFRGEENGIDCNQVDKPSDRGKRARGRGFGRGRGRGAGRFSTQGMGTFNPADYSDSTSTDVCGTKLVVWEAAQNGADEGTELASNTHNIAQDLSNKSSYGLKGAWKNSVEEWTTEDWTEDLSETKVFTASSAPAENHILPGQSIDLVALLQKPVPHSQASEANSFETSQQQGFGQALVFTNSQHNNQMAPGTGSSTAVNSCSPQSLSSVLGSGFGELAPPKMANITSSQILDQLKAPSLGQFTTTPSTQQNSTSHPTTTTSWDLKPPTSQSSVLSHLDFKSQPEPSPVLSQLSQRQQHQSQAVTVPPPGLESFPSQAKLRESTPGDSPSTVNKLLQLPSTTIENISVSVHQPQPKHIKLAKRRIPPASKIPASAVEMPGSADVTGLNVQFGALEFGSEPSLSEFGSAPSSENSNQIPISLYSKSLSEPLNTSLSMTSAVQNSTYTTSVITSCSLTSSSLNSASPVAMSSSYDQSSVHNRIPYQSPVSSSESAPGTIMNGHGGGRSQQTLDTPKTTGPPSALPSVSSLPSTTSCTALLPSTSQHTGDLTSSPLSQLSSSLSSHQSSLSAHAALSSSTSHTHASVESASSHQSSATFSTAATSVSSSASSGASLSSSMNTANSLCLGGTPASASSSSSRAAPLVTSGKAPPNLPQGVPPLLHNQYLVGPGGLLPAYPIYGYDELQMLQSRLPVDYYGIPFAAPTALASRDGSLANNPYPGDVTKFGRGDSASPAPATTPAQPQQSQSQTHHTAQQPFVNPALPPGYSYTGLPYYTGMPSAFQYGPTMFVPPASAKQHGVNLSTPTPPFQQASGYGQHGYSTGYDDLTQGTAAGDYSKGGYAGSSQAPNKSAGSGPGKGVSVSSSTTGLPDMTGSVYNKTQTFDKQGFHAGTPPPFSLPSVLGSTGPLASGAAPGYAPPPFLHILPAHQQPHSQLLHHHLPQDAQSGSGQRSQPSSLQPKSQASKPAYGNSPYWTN
UniProt Q86TV6: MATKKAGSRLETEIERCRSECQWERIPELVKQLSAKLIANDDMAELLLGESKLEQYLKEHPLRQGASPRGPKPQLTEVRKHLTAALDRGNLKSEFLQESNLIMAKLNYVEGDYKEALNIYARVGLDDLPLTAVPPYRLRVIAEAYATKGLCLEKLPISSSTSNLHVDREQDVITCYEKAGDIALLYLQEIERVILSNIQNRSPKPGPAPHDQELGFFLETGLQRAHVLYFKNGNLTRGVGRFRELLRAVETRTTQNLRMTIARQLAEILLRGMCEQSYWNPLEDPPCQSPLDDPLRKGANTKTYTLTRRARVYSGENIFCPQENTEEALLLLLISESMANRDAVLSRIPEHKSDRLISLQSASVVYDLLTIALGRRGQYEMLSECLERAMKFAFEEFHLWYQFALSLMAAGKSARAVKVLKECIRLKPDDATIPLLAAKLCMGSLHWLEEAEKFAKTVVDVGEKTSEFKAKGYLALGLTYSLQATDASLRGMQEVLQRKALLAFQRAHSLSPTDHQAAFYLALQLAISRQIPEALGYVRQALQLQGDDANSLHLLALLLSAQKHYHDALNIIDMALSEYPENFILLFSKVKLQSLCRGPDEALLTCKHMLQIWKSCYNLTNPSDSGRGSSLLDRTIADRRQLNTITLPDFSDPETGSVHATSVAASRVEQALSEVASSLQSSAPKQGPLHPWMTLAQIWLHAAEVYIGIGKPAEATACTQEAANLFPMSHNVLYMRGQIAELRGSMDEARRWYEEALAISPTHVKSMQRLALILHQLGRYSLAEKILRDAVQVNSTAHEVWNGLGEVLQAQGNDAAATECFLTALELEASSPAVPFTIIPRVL
UniProt Q8NBP0: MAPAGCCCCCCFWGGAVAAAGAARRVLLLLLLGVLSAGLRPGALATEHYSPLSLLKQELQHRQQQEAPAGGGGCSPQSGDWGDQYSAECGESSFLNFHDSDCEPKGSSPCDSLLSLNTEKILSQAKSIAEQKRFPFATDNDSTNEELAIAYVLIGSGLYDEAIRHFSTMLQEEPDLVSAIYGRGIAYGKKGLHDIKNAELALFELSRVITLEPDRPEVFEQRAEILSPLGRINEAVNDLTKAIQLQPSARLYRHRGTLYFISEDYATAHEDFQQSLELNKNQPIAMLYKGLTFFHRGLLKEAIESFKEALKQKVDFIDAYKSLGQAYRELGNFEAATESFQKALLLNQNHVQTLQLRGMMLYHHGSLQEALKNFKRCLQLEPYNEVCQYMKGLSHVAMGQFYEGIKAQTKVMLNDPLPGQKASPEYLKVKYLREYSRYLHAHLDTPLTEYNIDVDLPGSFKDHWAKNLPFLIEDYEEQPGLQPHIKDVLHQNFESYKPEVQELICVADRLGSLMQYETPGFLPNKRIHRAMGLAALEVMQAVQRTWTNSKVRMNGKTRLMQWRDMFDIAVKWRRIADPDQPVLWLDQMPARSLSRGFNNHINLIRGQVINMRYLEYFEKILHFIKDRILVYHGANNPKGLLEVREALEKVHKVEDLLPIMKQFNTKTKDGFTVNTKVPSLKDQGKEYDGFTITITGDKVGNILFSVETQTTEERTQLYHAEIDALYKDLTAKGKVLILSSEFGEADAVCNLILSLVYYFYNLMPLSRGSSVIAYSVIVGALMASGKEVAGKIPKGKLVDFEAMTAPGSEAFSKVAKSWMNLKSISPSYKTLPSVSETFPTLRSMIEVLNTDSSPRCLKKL
UniProt P63146, whole entry, looked up: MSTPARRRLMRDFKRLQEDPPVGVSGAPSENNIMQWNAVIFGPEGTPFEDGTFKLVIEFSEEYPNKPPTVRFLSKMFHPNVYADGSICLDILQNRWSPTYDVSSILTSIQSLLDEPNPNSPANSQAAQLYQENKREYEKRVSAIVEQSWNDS
UniProt Q13630: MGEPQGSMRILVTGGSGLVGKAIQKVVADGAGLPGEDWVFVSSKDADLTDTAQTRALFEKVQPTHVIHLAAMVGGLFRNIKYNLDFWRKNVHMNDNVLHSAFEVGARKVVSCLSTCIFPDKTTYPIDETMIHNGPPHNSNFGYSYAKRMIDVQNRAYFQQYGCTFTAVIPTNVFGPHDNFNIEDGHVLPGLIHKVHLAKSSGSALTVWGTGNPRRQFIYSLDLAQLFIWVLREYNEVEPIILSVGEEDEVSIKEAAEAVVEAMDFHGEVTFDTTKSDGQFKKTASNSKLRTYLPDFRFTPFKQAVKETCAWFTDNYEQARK
UniProt Q99757: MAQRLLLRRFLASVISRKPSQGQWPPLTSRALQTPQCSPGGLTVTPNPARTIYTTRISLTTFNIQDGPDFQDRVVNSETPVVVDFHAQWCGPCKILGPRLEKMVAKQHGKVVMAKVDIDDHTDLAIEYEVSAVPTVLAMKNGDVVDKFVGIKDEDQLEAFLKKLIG
UniProt Q16763: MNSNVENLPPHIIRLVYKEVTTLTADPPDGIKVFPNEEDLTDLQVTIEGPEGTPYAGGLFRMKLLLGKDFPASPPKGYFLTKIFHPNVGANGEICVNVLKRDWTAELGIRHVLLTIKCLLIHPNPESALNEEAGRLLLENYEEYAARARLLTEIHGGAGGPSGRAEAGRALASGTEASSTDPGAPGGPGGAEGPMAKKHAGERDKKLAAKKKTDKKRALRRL

Legend:
Experiment in all cases: log2 fold change, soluble protein after heating vs DMSO (PISA); higher = thermal stabilisation; K562 cells, 10 uM, 30 min; active = over 0.2 and 3.5 SD of the protein, either way, in both replicates (recomputed)
saracatinib = compound: CN1CCN(CCOc2cc(OC3CCOCC3)c3c(Nc4c(Cl)ccc5c4OCO5)ncnc3c2)CC1 [saracatinib]
Outline: (§1)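 Quantification of soluble protein used TMTpro 16plex LC-MS/MS, with channel sums equalised. Samples were the supernatant after 21,000xg for 90 min of pooled aliquots from K562 cells (2×10^6 cells/mL) treated with 10 μM compound for 30 min, heated for 3 min over 48°C-58°C, and extracted in PBS with 0.5% NP-40 at 4°C. Values, from duplicates, describe thermal stability against control samples on a log2 fold-change scale.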

sotrastaurin = compound: CN1CCN(c2nc(C3=C(c4c[nH]c5ccccc45)C(=O)NC3=O)c3ccccc3n2)CC1 [sotrastaurin]
Outline: as §1

alvocidib = compound: CN1CC[C@H](c2c(O)cc(O)c3c(=O)cc(-c4ccccc4Cl)oc23)[C@H](O)C1 [alvocidib]
Outline: as §1

Tubastatin A = compound: CN1CCc2c(c3ccccc3n2Cc2ccc(C(=O)NO)cc2)C1 [Tubastatin A]
Outline: as §1

[1] = compound: CNC(=O)C1=CC=CC=C1NC2=NC(=NC=C2Cl)NC3=C(C=C(C=C3)N4CCOCC4)OC
Outline: as §1

defactinib = compound: CNC(=O)c1ccc(Nc2ncc(C(F)(F)F)c(NCc3nccnc3N(C)S(C)(=O)=O)n2)cc1 [defactinib]
Outline: as §1

rucaparib = compound: CNCc1ccc(-c2[nH]c3cc(F)cc4c3c2CCNC4=O)cc1 [rucaparib]
Outline: as §1

[2] = compound: CNc1nc(-c2ccc3c(N)n[nH]c3c2)cc(N2C[C@@H](C(=O)NC3CCCCC3)CC[C@H]2C)n1
Outline: as §1

encorafenib = compound: COC(=O)N[C@@H](C)CNc1nccc(-c2cn(C(C)C)nc2-c2cc(Cl)cc(NS(C)(=O)=O)c2F)n1 [encorafenib]
Outline: as §1

[3] = compound: COC(=O)[C@H](CCSC)NC(=O)C1=C(C=C(C=C1)NC[C@H](CS)N)C2=CC=CC=C2
Outline: as §1

Measured: log2 fold change

TSR3 (UniProt Q9UJK0)
inactive: saracatinib 0.022 | sotrastaurin 0.08 | alvocidib 0.135 | Tubastatin A 0.053 | [1] -0.001 | defactinib 0.068 | rucaparib 0.024 | [2] 0.008 | encorafenib 0.006 | [3] 0.041

TSR2 (UniProt Q969E8)
inactive: saracatinib 0.024 | sotrastaurin 0.07 | alvocidib -0.162 | Tubastatin A 0.109 | [1] 0.041 | defactinib -0.043 | rucaparib -0.041 | [2] -0.045 | encorafenib 0.055 | [3] 0.007

TUSC3 isoform 2 (UniProt Q13454)
inactive: saracatinib -0.017 | sotrastaurin -0.065 | alvocidib 0.083 | Tubastatin A -0.018 | [1] 0.033 | defactinib 0.04 | rucaparib -0.047 | [2] -0.018 | encorafenib 0.115 | [3] 0.046

TTF2 (UniProt Q9UNY4)
inactive: saracatinib 0.047 | sotrastaurin 0.044 | alvocidib 0.2 | Tubastatin A -0.05 | [1] 0.056 | defactinib 0.007 | rucaparib 0.332 | [2] 0.212 | encorafenib 0.235 | [3] -0.175

TWSG1 (UniProt Q9GZX9)
inactive: saracatinib 0.066 | sotrastaurin 0.039 | alvocidib 0.022 | Tubastatin A -0.026 | [1] 0 | defactinib -0.024 | rucaparib -0.003 | [2] -0.06 | encorafenib 0 | [3] 0.078

UBE2O (UniProt Q9C0C9)
inactive: saracatinib -0.041 | sotrastaurin -0.026 | alvocidib -0.044 | Tubastatin A 0.076 | [1] -0.093 | defactinib -0.049 | rucaparib 0.053 | [2] 0.041 | encorafenib -0.011 | [3] -0.02

TXNDC12 (UniProt O95881)
inactive: saracatinib -0.138 | sotrastaurin 0.047 | alvocidib 0.05 | Tubastatin A -0.006 | [1] 0.043 | defactinib 0.019 | rucaparib 0.004 | [2] -0.04 | encorafenib 0.056 | [3] -0.026

TSN (UniProt Q15631)
inactive: saracatinib -0.002 | sotrastaurin 0.013 | alvocidib -0.019 | Tubastatin A -0.018 | [1] -0.038 | defactinib -0.005 | rucaparib -0.059 | [2] 0.031 | encorafenib -0.008 | [3] -0.019

TXNDC9 (UniProt O14530)
inactive: saracatinib -0.026 | sotrastaurin -0.045 | alvocidib -0.009 | Tubastatin A 0.082 | [1] 0.041 | defactinib -0.029 | rucaparib -0.015 | [2] -0.008 | encorafenib 0.009 | [3] 0.038

UBAP2 (UniProt Q5T6F2)
inactive: saracatinib 0.005 | sotrastaurin 0.04 | alvocidib 0.005 | Tubastatin A -0.022 | [1] -0.029 | defactinib -0.007 | rucaparib -0.016 | [2] -0.044 | encorafenib -0.038 | [3] 0.022

TTC7B isoform 2 (UniProt Q86TV6)
inactive: saracatinib 0.103 | sotrastaurin -0.072 | alvocidib 0.055 | Tubastatin A 0.076 | [1] 0.029 | defactinib 0.108 | rucaparib 0.131 | [2] -0.056 | encorafenib -0.061 | [3] -0.17

TTC13 (UniProt Q8NBP0)
inactive: saracatinib -0.237 | sotrastaurin 0.086 | alvocidib 0.119 | Tubastatin A 0.015 | [1] -0.035 | defactinib -0.147 | rucaparib 0.095 | [2] 0.042 | encorafenib -0.142 | [3] 0.269

UBE2G2 (UniProt P60604)
inactive: saracatinib -0.183 | sotrastaurin 0.036 | alvocidib -0.12 | Tubastatin A 0.076 | [1] -0.059 | defactinib -0.003 | rucaparib 0.025 | [2] 0.023 | encorafenib -0.024 | [3] -0.077

TSPAN14 (UniProt Q8NG11)
inactive: saracatinib 0.055 | sotrastaurin 0.034 | alvocidib -0.011 | Tubastatin A -0.052 | [1] -0.06 | defactinib -0.006 | rucaparib -0.052 | [2] -0.014 | encorafenib 0.025 | [3] 0.069

UBE2B (UniProt P63146)
inactive: saracatinib -0.017 | sotrastaurin -0.011 | alvocidib -0.026 | Tubastatin A -0.084 | [1] 0.058 | defactinib -0.088 | rucaparib -0.035 | [2] -0.072 | encorafenib 0.043 | [3] -0.031

TUBB4A (UniProt P04350)
inactive: saracatinib 0.13 | sotrastaurin 0.019 | alvocidib -0.077 | Tubastatin A 0.03 | [1] -0.003 | defactinib -0.084 | rucaparib -0.071 | [2] -0.002 | encorafenib -0.074 | [3] 0.096

TSTA3 (UniProt Q13630)
inactive: saracatinib 0.033 | sotrastaurin 0.029 | alvocidib -0.022 | Tubastatin A -0.01 | [1] -0.054 | defactinib -0.006 | rucaparib -0.057 | [2] -0.029 | encorafenib -0.005 | [3] 0.025

TUBB6 (UniProt K7ES63)
inactive: saracatinib -0.263 | sotrastaurin -0.025 | alvocidib 0.109 | Tubastatin A -0.035 | [1] -0.015 | defactinib 0.104 | rucaparib -0.112 | [2] 0.044 | encorafenib -0.035 | [3] -0.051

TUBB6 (UniProt Q9BUF5)
inactive: saracatinib 0.055 | sotrastaurin 0.103 | alvocidib -0.008 | Tubastatin A 0.017 | [1] -0.067 | defactinib -0.012 | rucaparib 0.03 | [2] 0.001 | encorafenib 0.018 | [3] -0.004

TXLNA (UniProt P40222)
inactive: saracatinib 0.014 | sotrastaurin 0.019 | alvocidib -0.085 | Tubastatin A 0.016 | [1] -0.01 | defactinib -0.056 | rucaparib -0.022 | [2] 0 | encorafenib 0.01 | [3] 0.008

UBE2D3 isoform 3 (UniProt P61077)
inactive: saracatinib 0 | sotrastaurin 0.024 | alvocidib -0.002 | Tubastatin A 0.065 | [1] 0.023 | defactinib -0.106 | rucaparib -0.015 | [2] 0.045 | encorafenib 0.006 | [3] -0.05

Reprinted from the results shown (2 entries):
TUBB6 (UniProt Q9BUF5)
inactive: saracatinib 0.055 | sotrastaurin 0.103 | alvocidib -0.008 | Tubastatin A 0.017 | [1] -0.067 | defactinib -0.012 | rucaparib 0.03 | [2] 0.001 | encorafenib 0.018 | [3] -0.004

TXLNA (UniProt P40222)
inactive: saracatinib 0.014 | sotrastaurin 0.019 | alvocidib -0.085 | Tubastatin A 0.016 | [1] -0.01 | defactinib -0.056 | rucaparib -0.022 | [2] 0 | encorafenib 0.01 | [3] 0.008

(listing goes on)

UBE2Q1 (UniProt Q7Z7E8)
inactive: saracatinib -0.023 | sotrastaurin -0.001 | Tubastatin A 0.027 | [1] 0.05 | defactinib -0.143 | rucaparib -0.008 | [2] 0.048 | encorafenib 0.04 | [3] -0.017

TXN2 (UniProt Q99757)
inactive: saracatinib 0.004 | sotrastaurin 0.04 | Tubastatin A 0.004 | [1] 0.17 | defactinib 0.031 | rucaparib -0.003 | [2] -0.034 | encorafenib 0.001 | [3] 0.068

TXNIP (UniProt Q9H3M7)
inactive: saracatinib -0.074 | sotrastaurin 0 | Tubastatin A 0.06 | [1] 0.179 | defactinib -0.085 | rucaparib -0.026 | [2] 0.243 | encorafenib 0.01 | [3] 0.07

UBE2E3 (UniProt Q969T4)
inactive: saracatinib -0.03 | sotrastaurin -0.044 | Tubastatin A -0.074 | [1] 0.067 | defactinib -0.162 | rucaparib -0.014 | [2] -0.022 | encorafenib 0.017 | [3] -0.067

UBE2S (UniProt Q16763)
inactive: saracatinib -0.001 | sotrastaurin -0.023 | Tubastatin A 0.2 | [1] -0.016 | defactinib -0.082 | rucaparib -0.051 | [2] -0.041 | encorafenib 0.022 | [3] -0.007

TXNDC5 (UniProt Q8NBS9)
inactive: saracatinib 0.007 | sotrastaurin 0.003 | alvocidib -0.006 | Tubastatin A -0.003 | [1] 0.014 | defactinib -0.014 | rucaparib -0.022 | [2] -0.034 | encorafenib 0.011 | [3] 0.003

UBE2A (UniProt P49459)
inactive: saracatinib -0.028 | sotrastaurin 0.062 | alvocidib -0.05 | Tubastatin A 0 | [1] -0.003 | defactinib 0.01 | rucaparib -0.033 | [2] 0.028 | encorafenib -0.112 | [3] -0.069

TUBA4A (UniProt P68366)
inactive: saracatinib 0.045 | sotrastaurin -0.012 | Tubastatin A -0.051 | [1] -0.039 | defactinib -0.024 | rucaparib -0.046 | [2] 0.038 | encorafenib -0.012 | [3] 0.013
